In patent US20180044434A1 one finds binding data, which are given here for 16 molecules.

Amino acid sequences for entries named in this document (tags omitted). A change or cut given only in a name is not applied to a line headed by its entry.
UniProt Q9UM07: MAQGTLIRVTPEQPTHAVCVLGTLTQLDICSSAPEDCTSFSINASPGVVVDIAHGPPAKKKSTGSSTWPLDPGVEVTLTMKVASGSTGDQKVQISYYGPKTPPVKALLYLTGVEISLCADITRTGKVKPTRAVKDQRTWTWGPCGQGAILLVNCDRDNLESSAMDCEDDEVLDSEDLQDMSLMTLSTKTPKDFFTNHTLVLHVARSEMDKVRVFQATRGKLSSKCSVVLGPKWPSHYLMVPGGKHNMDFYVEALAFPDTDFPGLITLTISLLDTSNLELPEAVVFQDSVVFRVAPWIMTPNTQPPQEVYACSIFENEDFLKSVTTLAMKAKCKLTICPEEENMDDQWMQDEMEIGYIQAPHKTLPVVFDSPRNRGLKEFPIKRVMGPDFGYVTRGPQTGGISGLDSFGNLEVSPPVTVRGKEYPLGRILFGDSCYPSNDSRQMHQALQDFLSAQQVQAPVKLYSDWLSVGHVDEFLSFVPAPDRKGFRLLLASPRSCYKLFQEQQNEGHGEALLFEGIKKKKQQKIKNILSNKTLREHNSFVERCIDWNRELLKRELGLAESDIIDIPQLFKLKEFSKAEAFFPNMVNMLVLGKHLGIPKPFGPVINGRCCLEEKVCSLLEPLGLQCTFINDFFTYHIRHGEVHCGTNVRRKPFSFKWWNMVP

These are yes or no findings as the source states them, for the method shown. Some entries that bind do so weakly or less than the wild type.

The target of experiment [1] is full-length recombinant human PAD4 (human) (UniProt Q9UM07). As to the kind of experiment: ELISA, coated human PAD4. Background: In an ELISA, binding on a coated surface is turned into a signal by an enzyme label.
Experiment [2] has the same target. In words: ELISA, immobilized human PAD4.

B1: humanized anti-PAD4 antibody derived from G8, VH H4.15 / VL L4.00 (antibody, human IgG1, kappa, V domains shown)
VH: EVQLLESGGGLVQPGGSLRLSCAASGFTFSTYAMGWVRQAPGKGLEFVSAIRNDGSWTGYGAAVKGRFTISRDNSKNTVYLQMNSLRAEDTAVYYCAKYTGSSGGSIGAWGQGTLVTVSS
VL: SYELTQPPSVSVSPGQTARITCSGGNRNYYYGWYQQKPGQAPVLVIYANDKRPSGIPERFSGSSSGTTVTLTISGVQAEDEADYYCGTADTGKYVFGGGTKLTVLG
Turning to B1, the binding result in experiment [1] and in experiment [2] was “binds” in each case.

B2: humanized anti-PAD4 antibody derived from G8, VH H4.32 / VL L4.29 (antibody, IgG1, V domains shown)
VH: EVQLLESGGGLVQPGGSLRLSCAASGFTFSTYAMGWVRQAPGKGLEFVAAIRNDGSWTGYGAAVKGRVTISRDNSKNTVYLQMNSLRAEDTAVYYCAKYTGSSGGSIGAWGQGTLVTVSS
VL: SYELTQPPSVSVSPGQTARITCSGGNRNYYYGWYQQKPGQAPVTVIYANDKRPSGIPERFSGSNSGSTTTLTISGVQAEDEADYYCGTADTGKYVFGGGTKLTVLG
Take B2: the binding result in experiment [1] and in experiment [2] was “binds” in each case.

B3: humanized anti-PAD4 antibody derived from H7, VH H4.15 / VL L4.17 (antibody, IgG1, V domains shown)
VH: EVQLLESGGGLVQPGGSLRLSCAASGFTFSTYAMGWVRQAPGKGLEFVSAIRNDGSWTGYGAAVKGRFTISRDNSKNTVYLQMNSLRAEDTAVYYCAKYTGSSGGSIGAWGQGTLVTVSS
VL: SYELTQPPSVSVSPGQTARITCSGGSGRYYYGWYQQKPGQAPVTVIYSSTHRPSGIPERFSGSTSGNTTTLTISGVQAEDEADYYCGTADSSSYVFGGGTKLTVLG
For the molecule B3, the binding entry in experiment [1] and in experiment [2] was “binds” each time.

B4: humanized anti-PAD4 antibody derived from H7, VH H4.15 / VL L4.15 (antibody, IgG1, V domains shown)
VH: EVQLLESGGGLVQPGGSLRLSCAASGFTFSTYAMGWVRQAPGKGLEFVSAIRNDGSWTGYGAAVKGRFTISRDNSKNTVYLQMNSLRAEDTAVYYCAKYTGSSGGSIGAWGQGTLVTVSS
VL: SYELTQPPSVSVSPGQTARITCSGGSGRYYYGWYQQKPGQAPVTVIYSSTHRPSGIPERFSGSNSGNTTTLTISGVQAEDEADYYCGTADSSSYVFGGGTKLTVLG
For B4, the binding result in experiment [1] and in experiment [2] was “binds” in each case.

B5: humanized anti-PAD4 antibody derived from G8, VH H4.15 / VL L4.06 (antibody, human IgG1, kappa, V domains shown)
VH: EVQLLESGGGLVQPGGSLRLSCAASGFTFSTYAMGWVRQAPGKGLEFVSAIRNDGSWTGYGAAVKGRFTISRDNSKNTVYLQMNSLRAEDTAVYYCAKYTGSSGGSIGAWGQGTLVTVSS
VL: SYELTQPPSVSVSPGQTARITCSGGNRNYYYGWYQQKPGQAPVTVIYANDKRPSGIPERFSGSYSGNTTTLTISGVQAEDEADYYCGTADTGKYVFGGGTKLTVLG
Consider B5, for which the binding result in experiment [1] and in experiment [2] was “binds” in each case.

B6: humanized anti-PAD4 antibody derived from H7, VH H4.15 / VL L4.06 (antibody, IgG1, V domains shown)
VH: EVQLLESGGGLVQPGGSLRLSCAASGFTFSTYAMGWVRQAPGKGLEFVSAIRNDGSWTGYGAAVKGRFTISRDNSKNTVYLQMNSLRAEDTAVYYCAKYTGSSGGSIGAWGQGTLVTVSS
VL: SYELTQPPSVSVSPGQTARITCSGGSGRYYYGWYQQKPGQAPVTVIYSSTHRPSGIPERFSGSYSGNTTTLTISGVQAEDEADYYCGTADSSSYVFGGGTKLTVLG
B6: the binding entry in experiment [1] and in experiment [2] was “binds” each time.

B7: humanized anti-PAD4 antibody derived from H7, VH H4.32 / VL L4.00 (antibody, IgG1, V domains shown)
VH: EVQLLESGGGLVQPGGSLRLSCAASGFTFSTYAMGWVRQAPGKGLEFVAAIRNDGSWTGYGAAVKGRVTISRDNSKNTVYLQMNSLRAEDTAVYYCAKYTGSSGGSIGAWGQGTLVTVSS
VL: SYELTQPPSVSVSPGQTARITCSGGSGRYYYGWYQQKPGQAPVLVIYSSTHRPSGIPERFSGSSSGTTVTLTISGVQAEDEADYYCGTADSSSYVFGGGTKLTVLG
With B7, the binding result in experiment [1] and in experiment [2] was “binds” throughout.

B8: humanized anti-PAD4 antibody derived from H7, VH H4.32 / VL L4.06 (antibody, IgG1, V domains shown)
VH: EVQLLESGGGLVQPGGSLRLSCAASGFTFSTYAMGWVRQAPGKGLEFVAAIRNDGSWTGYGAAVKGRVTISRDNSKNTVYLQMNSLRAEDTAVYYCAKYTGSSGGSIGAWGQGTLVTVSS
VL: SYELTQPPSVSVSPGQTARITCSGGSGRYYYGWYQQKPGQAPVTVIYSSTHRPSGIPERFSGSYSGNTTTLTISGVQAEDEADYYCGTADSSSYVFGGGTKLTVLG
For the molecule B8, the binding result in experiment [1] and in experiment [2] was “binds” throughout.

B9: humanized anti-PAD4 antibody derived from H7, VH H4.15 / VL L4.00 (antibody, IgG1, V domains shown)
VH: EVQLLESGGGLVQPGGSLRLSCAASGFTFSTYAMGWVRQAPGKGLEFVSAIRNDGSWTGYGAAVKGRFTISRDNSKNTVYLQMNSLRAEDTAVYYCAKYTGSSGGSIGAWGQGTLVTVSS
VL: SYELTQPPSVSVSPGQTARITCSGGSGRYYYGWYQQKPGQAPVLVIYSSTHRPSGIPERFSGSSSGTTVTLTISGVQAEDEADYYCGTADSSSYVFGGGTKLTVLG
Take B9: the binding entry in experiment [1] and in experiment [2] was “binds” throughout.

B10: humanized anti-PAD4 antibody derived from H7, VH H4.32 / VL L4.15 (antibody, IgG1, V domains shown)
VH: EVQLLESGGGLVQPGGSLRLSCAASGFTFSTYAMGWVRQAPGKGLEFVAAIRNDGSWTGYGAAVKGRVTISRDNSKNTVYLQMNSLRAEDTAVYYCAKYTGSSGGSIGAWGQGTLVTVSS
VL: SYELTQPPSVSVSPGQTARITCSGGSGRYYYGWYQQKPGQAPVTVIYSSTHRPSGIPERFSGSNSGNTTTLTISGVQAEDEADYYCGTADSSSYVFGGGTKLTVLG
Turning to B10, the binding result in experiment [1] and in experiment [2] was “binds” in each case.

B11: humanized anti-PAD4 antibody derived from G8, VH H4.32 / VL L4.06 (antibody, IgG1, V domains shown)
VH: EVQLLESGGGLVQPGGSLRLSCAASGFTFSTYAMGWVRQAPGKGLEFVAAIRNDGSWTGYGAAVKGRVTISRDNSKNTVYLQMNSLRAEDTAVYYCAKYTGSSGGSIGAWGQGTLVTVSS
VL: SYELTQPPSVSVSPGQTARITCSGGNRNYYYGWYQQKPGQAPVTVIYANDKRPSGIPERFSGSYSGNTTTLTISGVQAEDEADYYCGTADTGKYVFGGGTKLTVLG
Take B11: the binding result in experiment [1] and in experiment [2] was “binds” in each case.

B12: humanized anti-PAD4 antibody derived from G8, VH H4.15 / VL L4.29 (antibody, human IgG1, kappa, V domains shown)
VH: EVQLLESGGGLVQPGGSLRLSCAASGFTFSTYAMGWVRQAPGKGLEFVSAIRNDGSWTGYGAAVKGRFTISRDNSKNTVYLQMNSLRAEDTAVYYCAKYTGSSGGSIGAWGQGTLVTVSS
VL: SYELTQPPSVSVSPGQTARITCSGGNRNYYYGWYQQKPGQAPVTVIYANDKRPSGIPERFSGSNSGSTTTLTISGVQAEDEADYYCGTADTGKYVFGGGTKLTVLG
In the case of B12, the binding entry in experiment [1] and in experiment [2] was “binds” throughout.

B13: humanized anti-PAD4 antibody derived from H7, VH H4.32 / VL L4.17 (antibody, IgG1, V domains shown)
VH: EVQLLESGGGLVQPGGSLRLSCAASGFTFSTYAMGWVRQAPGKGLEFVAAIRNDGSWTGYGAAVKGRVTISRDNSKNTVYLQMNSLRAEDTAVYYCAKYTGSSGGSIGAWGQGTLVTVSS
VL: SYELTQPPSVSVSPGQTARITCSGGSGRYYYGWYQQKPGQAPVTVIYSSTHRPSGIPERFSGSTSGNTTTLTISGVQAEDEADYYCGTADSSSYVFGGGTKLTVLG
For the molecule B13, the binding result in experiment [1] and in experiment [2] was “binds” throughout.

B14: humanized anti-PAD4 antibody derived from G8, VH H4.15 / VL L4.17 (antibody, human IgG1, kappa, V domains shown)
VH: EVQLLESGGGLVQPGGSLRLSCAASGFTFSTYAMGWVRQAPGKGLEFVSAIRNDGSWTGYGAAVKGRFTISRDNSKNTVYLQMNSLRAEDTAVYYCAKYTGSSGGSIGAWGQGTLVTVSS
VL: SYELTQPPSVSVSPGQTARITCSGGNRNYYYGWYQQKPGQAPVTVIYANDKRPSGIPERFSGSTSGNTTTLTISGVQAEDEADYYCGTADTGKYVFGGGTKLTVLG
As for B14, the binding entry in experiment [1] and in experiment [2] was “binds” throughout.

B15: humanized anti-PAD4 antibody derived from G8, VH H4.32 / VL L4.17 (antibody, IgG1, V domains shown)
VH: EVQLLESGGGLVQPGGSLRLSCAASGFTFSTYAMGWVRQAPGKGLEFVAAIRNDGSWTGYGAAVKGRVTISRDNSKNTVYLQMNSLRAEDTAVYYCAKYTGSSGGSIGAWGQGTLVTVSS
VL: SYELTQPPSVSVSPGQTARITCSGGNRNYYYGWYQQKPGQAPVTVIYANDKRPSGIPERFSGSTSGNTTTLTISGVQAEDEADYYCGTADTGKYVFGGGTKLTVLG
For B15, the binding entry in experiment [1] and in experiment [2] was “binds” each time.

B16: humanized anti-PAD4 antibody derived from G8, VH H4.32 / VL L4.00 (antibody, IgG1, V domains shown)
VH: EVQLLESGGGLVQPGGSLRLSCAASGFTFSTYAMGWVRQAPGKGLEFVAAIRNDGSWTGYGAAVKGRVTISRDNSKNTVYLQMNSLRAEDTAVYYCAKYTGSSGGSIGAWGQGTLVTVSS
VL: SYELTQPPSVSVSPGQTARITCSGGNRNYYYGWYQQKPGQAPVLVIYANDKRPSGIPERFSGSSSGTTVTLTISGVQAEDEADYYCGTADTGKYVFGGGTKLTVLG
With B16, the binding entry in experiment [1] and in experiment [2] was “binds” in each case.
